In patent US11162083B2, “Peptide based inhibitors of Raf kinase protein dimerization and kinase activity” (UNIVERSITY OF SOUTH CAROLINA, priority 2018, dated 2021):
At least one compound was matched to its structure with a doubt left. No end group written: not given here.

The chains behind the UniProt entries cited, without tags or fusion partners. Residues count along the entry.
UniProt P15056, 2-766 limits assumed: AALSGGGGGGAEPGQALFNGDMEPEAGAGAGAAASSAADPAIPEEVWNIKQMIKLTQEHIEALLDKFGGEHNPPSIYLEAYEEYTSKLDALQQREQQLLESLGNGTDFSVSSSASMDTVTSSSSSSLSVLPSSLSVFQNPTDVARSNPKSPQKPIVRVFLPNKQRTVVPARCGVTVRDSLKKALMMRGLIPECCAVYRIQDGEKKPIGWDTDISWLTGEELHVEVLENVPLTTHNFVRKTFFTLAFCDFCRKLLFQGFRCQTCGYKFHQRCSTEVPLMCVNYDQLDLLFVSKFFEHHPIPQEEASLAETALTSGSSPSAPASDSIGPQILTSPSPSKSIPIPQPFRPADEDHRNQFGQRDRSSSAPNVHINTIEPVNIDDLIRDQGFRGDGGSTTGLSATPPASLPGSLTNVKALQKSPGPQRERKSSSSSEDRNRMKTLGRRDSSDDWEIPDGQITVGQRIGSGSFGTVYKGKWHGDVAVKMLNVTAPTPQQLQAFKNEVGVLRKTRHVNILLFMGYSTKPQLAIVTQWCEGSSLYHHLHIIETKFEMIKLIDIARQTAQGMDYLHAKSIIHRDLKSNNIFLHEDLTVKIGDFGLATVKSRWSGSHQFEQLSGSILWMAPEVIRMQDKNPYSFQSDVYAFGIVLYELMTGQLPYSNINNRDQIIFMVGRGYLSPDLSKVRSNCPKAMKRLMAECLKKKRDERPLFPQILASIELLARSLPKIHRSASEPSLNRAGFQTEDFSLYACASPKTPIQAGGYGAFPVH

Molecular target: B-Raf (Homo sapiens, UniProt P15056)
Assay: Kd (μM)

Row | Substance | Kd
1 | GVARKTRHVNILLFMGYST-NH2 (C-terminus assumed) [compound 4] | 3890 ± 530 nM
2 | GVLEKTRHVNILLFMGYST-NH2 (C-terminus assumed) [compound 5] | 1090 ± 290 nM
3 | GVLLKTRHVNILLFMGYST-NH2 (C-terminus assumed) [compound 6] | 540 ± 110 nM
4 | GVLRKDRHVNILLFMGYST-NH2 (C-terminus assumed) [compound 7] | 2200 ± 830 nM
